Consider 17 compounds from US5750531A, “Pyrimidine derivatives and processes for the preparation thereof” (Yuhan Corporation, priority 1994, dated 1998).

The data set concerns proton pump(H^+ /K^+ ATPase). Nature of the data set: Inhibition of proton pump(H^+ /K^+ ATPase) activity. Particulars: IC50 omeprazole / IC50 test compound. Format: biochemical. The procedure: Test 1: Inhibition of proton pump(H^+ /K^+ ATPase) activity
A proton pump enzyme source was prepared by the same method as in Experiment 1-1 of WO 94/14795. Further, the inhibitory effect of proton pump activity was measured by the same method as in Experiment 1-2 of WO 94/14795.
Namely, the proton pump activity stimulated by Mg^++ was used as a negative comparative group, and the activity stimulated by Mg^++ and K^+ was used as a positive comparative group. The comparative compound was omeprazole.
Test tubes were divided into 4 groups: Group 1 as negative comparative group(n=3), Group 2 as positive comparative group(n=3), Group 3(n=5×2) to be administered with the compound of the present invention and Group 4(n=5×2) to be administered with the comparative compound.
The inhibitory effects of Groups 3 and 4 on proton pump activity were measured by employing the compound prepared in Example and omeperazole, respectively, each of which was dissolved in dimethylsulfoxide at 5 different concentrations.
To each of Groups 1, 2, 3 and 4 were added 100 μl of magnesium chloride(40 mM) dissolved in 40 mM Tris-HCl buffer(pH 6.0) and 100μ of the enzyme source. Then, 50μ of potassium chloride(50 mM) and 50 μl of ammonium chloride(6 mM) dissolved in 40 mM Tris-HCl buffer(pH 6.0) were added to all groups except for Group 1.
10 μl of dimethylsulfoxide was added to each of Groups 1 and 2; and to Group 3 was added 10 μl of the solution in which the compound prepared in Example was dissolved in dimethylsulfoxide at 5 different concentrations(n=5×2). To Group 4, 10 μl of the solution prepared by dissolving omeprazole in dimethylsulfoxide at 5 different concentrations(37.6, 21.4, 12.2, 7.0 and 4.0 μM) was added(n=5×2). 40 mM Tris-HCl buffer(pH=6.0) was added thereto so as to make the total volume 400 μl.
Thereafter, the test tubes of each Group were placed at 37° C. for 30 minutes for the preincubation. 100 μl of ATP solution (6.6 mM) was added until the reaction volume became 500 μl. After the reaction was carried out at 37° C. for 30 minutes, 25% cold trichloroacetic acid was added to terminate the enzyme reaction. The released inorganic phosphate was measured by an automatic analyzer(Express 550, Corning).
The difference between Group 1 and Group 2 represents the proton pump activity activated by K^+ only. The inhibition percentages of Groups 3 and 4 were calculated from Litchfield-wilcoxon equation[see, e.g., J. pharmacol. Exp. Ther., 96, 99(1949)]. The concentrations of the test compounds which inhibit 50% of the proton pump activity are represented as IC50 in Table 1.

Structures can show the parent of a compound that is named as a salt.

Consider `CCc1cc(Nc2ccc(F)cc2C)nc(N2CCc3ccccc3C2C)n1.Cl` (centres unmarked) [Example 61, 6-Ethyl-4-(2-methyl-4-fluorophenylamino)-2-(1-methyl-1,2,3,4-tetrahydroisoquinolin-2-yl)pyrimidine hydrochloride], for which the Effect ratio is on record as ~ 0.60.

Regarding `CCc1cc(Nc2ccc(F)cc2C)nc(N2CCc3ccccc3C2)n1.Cl` [Example 62, 6-ethyl-4-(2-methyl-4-fluorophenylamino)-2-(1,2,3,4-tetrahydroisoquinolin-2-yl)pyrimidine hydrochloride], the Effect ratio is recorded as less than 0.71.

On to `CCc1cc(Nc2ccc(F)cc2)nc(N2CCc3ccccc3C2)n1.Cl` [Example 63, 6-ethyl-4-(4-fluorophenylamino)-2-(1,2,3,4-tetrahydroisoquinolin-2-yl)pyrimidine hydrochloride], for which the Effect ratio is ~ 1.18.

On to `CCc1cc(N(C)c2ccccc2)nc(N2CCc3ccccc3C2)n1.Cl` [Example 64, 6-ethyl-4-(N-methylphenylamino)-2-(1,2,3,4-tetrahydroisoquinolin-2-yl)pyrimidine hydrochloride], for which the Effect ratio is reported as ~ 1.42.

In the case of `Cc1cc(F)ccc1Nc1nc(N2CCc3ccccc3C2C)nc(C)c1C.Cl` (centres unmarked) [Example 65, 5,6-dimethyl-4-(2-methyl-4-fluorophenylamino)-2-(1-methyl-1,2,3,4-tetrahydroisoquinolin-2-yl)pyrimidine hydrochloride], the Effect ratio stood at 6.04.

Regarding `Cc1cc(F)ccc1Nc1nc(N2CCc3ccccc3[C@H]2C)nc(C)c1C.Cl` [Example 66, (R)-5,6-dimethyl-4-(2-methyl-4-fluorophenylamino)-2-(1-methyl-1,2,3,4-tetrahydroisoquinolin-2-yl)pyrimidine hydrochloride], the Effect ratio came to 6.40.

On to `Cc1cc(F)ccc1Nc1nc(N2CCc3ccccc3[C@@H]2C)nc(C)c1C.Cl` [Example 67, (S)-5,6-dimethyl-4-(2-methyl-4-fluorophenylamino)-2-(1-methyl-1,2,3,4-tetrahydroisoquinolin-2-yl)pyrimidine hydrochloride], for which the Effect ratio amounted to 4.50.

`Cc1nc(N2CCc3ccccc3C2C)nc(Nc2ccc(F)cc2)c1C.Cl` (centres unmarked) [Example 68, 5,6-dimethyl-4-(4-fluorophenylamino)-2-(1-methyl-1,2,3,4-tetrahydroisoquinolin-2-yl)pyrimidine hydrochloride]: the Effect ratio stood at 1.86.

For the compound `Cc1nc(N2CCc3ccccc3[C@H]2C)nc(Nc2ccc(F)cc2)c1C.Cl` [Example 69, (R)-5,6-dimethyl-4-(4-fluorophenylamino)-2-(1-methyl-1,2,3,4-tetrahydroisoquinolin-2-yl)pyrimidine hydrochloride], the Effect ratio was found to be 2.00.

Turning to `Cc1nc(N2CCc3ccccc3[C@@H]2C)nc(Nc2ccc(F)cc2)c1C.Cl` [Example 70, (S)-5,6-dimethyl-4-(4-fluorophenylamino)-2-(1-methyl-1,2,3,4-tetrahydroisoquinolin-2-yl)pyrimidine hydrochloride], the Effect ratio came to 1.70.

Regarding `Cc1cc(F)ccc1Nc1nc(N2CCc3ccccc3C2)nc(C)c1C.Cl` [Example 74, 5,6-dimethyl-4-(2-methyl-4-fluorophenylamino)-2-(1,2,3,4-tetrahydroisoquinolin-2-yl)pyrimidine hydrochloride], the Effect ratio was determined as 22.00.

For the compound `Cc1nc(N2CCc3ccccc3C2)nc(Nc2ccc(F)cc2)c1C.Cl` [Example 75, 5,6-dimethyl-4-(4-fluorophenylamino)-2-(1,2,3,4-tetrahydroisoquinolin-2-yl)pyrimidine hydrochloride], the Effect ratio stood at 5.89.

With `Cc1cc(F)ccc1Nc1nc(N2CCc3ccsc3C2C)nc(C)c1C.Cl` (centres unmarked) [Example 77, 5,6-dimethyl-4-(2-methyl-4-fluorophenylamino)-2-(7-methyl-4,5,6,7-tetrahydrothieno[2,3-c]pyridin-6-yl)pyrimidine hydrochloride], the Effect ratio is on record as 3.16.

For the compound `Cc1nc(N2CCc3ccsc3C2C)nc(Nc2ccc(F)cc2)c1C.Cl` (centres unmarked) [Example 78, 5,6-dimethyl-2-(7-methyl-4,5,6,7-tetrahydrothieno[2,3-c]pyridin-6-yl)-4-(4-fluorophenylamino)pyrimidine hydrochloride], the Effect ratio is reported as 1.35.

Turning to `Cc1cc(F)ccc1Nc1nc(N2CCc3ccccc3C2C)nc2c1CCC2` (centres unmarked) [Example 81, hydrochloride], the Effect ratio amounted to 15.82.

Take `Cc1cc(F)ccc1Nc1nc(N2CCc3ccccc3C2C)nc2c1CCCC2.Cl` (centres unmarked) [Example 82, 4-(2-Methyl-4-fluorophenylamino)-2-(1-methyl-1,2,3,4-tetrahydroisoquinolin-2-yl)-5,6,7,8-tetrahydroquinazoline hydrochloride]: the Effect ratio is given as 9.40.

Take `Cc1cc(F)ccc1Nc1nc(N2CCc3ccccc3C2)nc2c1CCCC2.Cl` [Example 83, 4-(2-methyl-4-fluorophenylamino)-2-(1,2,3,4-tetrahydroisoquinolin-2-yl)-5,6,7,8-tetrahydroquinazoline hydrochloride]: the Effect ratio came out at 5.34.
